Data published in patent US20260234247A1.
Substitutions are numbered along the chain they refer to. No constants are given. Whether binding was seen depends on the method and setting. For some of these results: A result given as binding can be weak or reduced; the word gives no strength.

B1: hz73D1.v1 (antibody, human IgG4 S228P, kappa, V domains shown)
VH: QVQLVQSGAEVKKPGASVKVSCKASGYTFTDYYINWVRQAPGQGLEWMGNVNPNDGGTTYNQKFKGRVTMTTDTSTSTAYMELRSLRSDDTAVYYCARREIYFYGTIYYYAMDYWGQGTLVTVSS
VL: DIQLTQSPSFLSASVGDRVTITCRASESVDYYGNSFMYWYQQKPGKAPKLLIYFASNLESGVPSRFSGSGSGTEFTLTISSLQPEDFATYYCQQNNEDPWTFGGGTKVEIKR
B2: LK-RB2-32 (antibody, human IgG4 S228P, kappa, V domains shown)
VH: DVQLQESGPGLVKPSQSLSLTCSVTGYSITSGYYWNWIRQFPGNKLEWMGYISFDGSNHYNPSLRNRISITRDTFKNQFFLKLNSVTTEDTATFYCTRRDYNWFAYWGQGTLVTVSA
VL: DIVLTQSPVTLSVTPGDSVSLSCRASQNINKNLHWYQQRSHESPRLLIKYVSQSISGIPSRFSGSGSGTDFTLSINSVETEDFGMYFCQQSNSWPLTFGAGTKLELRR
B3: LK-RB1-37 (antibody, human IgG4 S228P, kappa, V domains shown)
VH: QVQLQQPGAELVKPGASVKLSCKASGYTFTSYWMHWVKQRPGRGPEWIGRIDPNSGYARYNEKFKNKATLTADKPSSTADMHLSSLTSEDSAVYYCTRSFITTAEWFFDVWGTGTTVTVSS
VL: DILLTQSPAILSVSPGERVSFSCRASQSIGTSIHWYQQRRNGSPRLLIKYTSESISGIPSRFSGSGSGTDFTLSINSVESEDIADYYCQQSNSWPHTFGGGTKLELKR
B4: LK-RB1-42 (antibody, human IgG4 S228P, kappa, V domains shown)
VH: QVQLQQPGAELVKPGTSVKLSCKASGYSFISYWVYWVKQRPGQGLEWIGMIHPNSGSTNFNEKFRYKATLTVDKSSSTAYIQLSSLTSEDSAVYYCGRSDDGYPYHAMDSWGQGTSVTVSS
VL: DIVMTQSQKFMSTSVGDRVSVTCKASQNVGTNVAWYQQKPGQSPKALIYSASYRFSGVPDRFTGSGSGTDFTLTIGNVQSEDLAEYFCHQYKNYPLTFGGGTKLEIKR
B5: LK-RB1-43 (antibody, human IgG4 S228P, kappa, V domains shown)
VH: EFQLQQSGPELMKPGASVKISCKASGYSFTDYNMNWVKQSNGKSLEWIGIIDPNYGTTTYNQKFKGRATLTVDQSSNTAYMQLNSLTSEDSAVYYCAREGRYSWFAYWGQGTLVTVSA
VL: DIQMTQSPGALSVSVGETVTITCRASENINSNLAWYQQKQGKSPQLLVYAATNLADGVPSRFSGSGSGTQYSLKINSLQSEDFGSYHCQHFWGTPFTFGSGTKLEIKR
B6: LK-RB1-51 (antibody, human IgG4 S228P, kappa, V domains shown)
VH: QVQIQQSGAELVKPGASVKLSCKASGYTFTEFPIHWIKQRSGQGLEWIGWFYPGSDNMNYNEKFKDKATLTADKSSSTVYMELSRLTSEDSAVYFCARHENAYFYAMDYWGQGTSVTVSS
VL: ENVLTQSPAIMSASLGEKVTMSCRASSSVNYMYWYQQKSDASPKIWIYYTSNLAPGVPARFSGSGSGNSYSLTISSMEGEDAATYYCQQFTSSPFTFGTGTKLEIKR
B7: LK-RB1-54 (antibody, human IgG4 S228P, kappa, V domains shown)
VH: DVQLQESGPGLVKPSQSLSLTCSVTGYSITSGFYWNWIRQFPGNKLEWMGHISYDGTNNYNPSLKNRISITRDTSKNLFFLKLNSVTTEDTATFHCARGGYGGSYGFDYWGQGTTLTVSS
VL: B6 VL with I45L, A59V, F95W, T99G
B8: LK-RB1-58 (antibody, human IgG4 S228P, kappa, V domains shown)
VH: QVQLKQSGPGLVQPSQSLSITCTVSGFSLTTYGVHWVRQSPGKGLEWLGVIWRGGSTDYNAAFMSRLSITKDNSKSQVFFRMNSLQADDTARYYCAKNSLYYGSSWYFDVWGTGTTVTVSS
VL: QIVLSQSPAILSASPGEKVTMTCRASSSVSFMHWYQQKPGSSPKPWIYATSNLASGVPARFSGSGSGTSYSLTISRVEAEDAATYYCQQWSSNPPTFGGGTKLEIKR
B9: 15G8 (antibody, human IgG4 S228P, kappa, V domains shown)
VH: DVQLQGSGPGLVKPSETLSLTCSVTGYSITSGYYWNWIRQFPGKKLEWMGYISYDGSNNYNPSLKNRITISRDTSKNQFSLKLNSVTAADTATYYCAHGYSYYYAMDAWGQGTSVTVSS
VL: DIQMTQSPSSLSASVGDRVTITCRTSQDISNYLNWYQQKPGKAVKLLISYTSRLHSGVPSRFSGSGSGTDYTLTISSLQPEDFATYYCQQGNTLPTFGQGTKLEIKR

Tests used:
[1] = molecular target: cynomolgus LILRB1 protein (cynomolgus); assay: ELISA (FIGS. 3A and 3B)
[2] = molecular target: cynomolgus LILRB1 protein (cynomolgus); assay: ELISA (FIGS. 3A-3B)
[3] = molecular target: Rhesus LILRB1 (NP_001035762.2) protein (rhesus macaque); assay: ELISA on rhesus LILRB1 (NP_001035762.2) protein
[4] = molecular target: cynomolgus LILRB2 overexpressing CHOK1 cell line (cynomolgus); assay: flow cytometry (FIGS. 3C-3E)
[5] = molecular target: cynomolgus LILRB2 protein (cynomolgus); assay: Octet, dissociation rate ranking

Binder | binding [3] | further results
B1 | no binding | binding [1]: binds; binding [2]: binds; binding [4]: binds
B2 |  | binding [5]: binds; binding [4]: binds
B3 | no binding | 
B4 | no binding | 
B5 | no binding | 
B6 | no binding | 
B7 | no binding | 
B8 | no binding | 
B9 | no binding | 
